Results are given in words; binding and its absence hold for the method and conditions named. Some results given as binding are weak or reduced against the parent protein; the word gives no strength.

Protein sequences, listed by entry. Tags and fused reporters are not part of them. Residues count along the entry.
UniProt P54764, residues 29-209: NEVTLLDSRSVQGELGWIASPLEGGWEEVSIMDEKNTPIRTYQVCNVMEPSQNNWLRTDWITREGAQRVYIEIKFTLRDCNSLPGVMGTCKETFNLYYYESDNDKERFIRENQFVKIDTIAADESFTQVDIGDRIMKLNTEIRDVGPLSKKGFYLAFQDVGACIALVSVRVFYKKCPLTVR

The assay has as its target EphA4-Ligand Binding Domain (EphA4-LBD) (UniProt P54764). Description: X-ray crystal structure of the antibody A-Fab/EphA4-LBD complex purified by gel filtration. Background: SEC sorts molecules by how far they enter the pores of the column.

B1: antibody A-Fab (Fab, V domains shown, not shown: a dimerising Fc or GST)
VH: QVQLKQSGPSLVQPSQSLSITCTVSGFSLTRYGVHWVRQSPGKGLEWLGVIWRGGSTDYNAAFMSRLSITKDNSKSQVFFKMNSLQADDTAIYYCAKESLFGVYYDYGYYSMDYWGQGTSVTVSS
VL: DIQMTQSPSSLSASLGERVSLTCRASQEISGYLSWLQQKPDGTIKRLIYAASTLDSGVPKRFSGSRSGSDYSLTISSLESEDFADYYCLQYASYPLTFGAGTKLELKR
As for B1, the binding result is on record as “binds”.

These data come from US20240010735A1.
